The list shows only some results of the screen, not a fair sample: it is rich in T/C values a quarter to a half above the control, in often repeated tests (any T/C) and in doses without a T/C. Further doses and runs are listed elsewhere. T/C gives the treated animals as a percentage of the vehicle group. Some entries give survivors of the animals treated and no T/C: the source holds a T/C of zero for them, seemingly a mark for toxic or unscored doses. Some survivor counts are full or nearly so, which does not show that the dose was tolerated: the source hardly ever lists a survival T/C far under the control, and the zero likely stands for such cases as well. Survivors were counted at the toxicity check, usually on the fifth day, unless a day is given; later deaths do not show. Schedule codes are those of the source, read here as Q, the interval in days (D) or hours (H), X, the number of doses. Some doses were run more than once; the values are given in rising order. For survival time, the PubChem record calls one and a half times the control and up active, and a quarter to a half above the control has no call in these data; cut-offs in other NCI protocols can differ. Some T/C values carry the count of animals alive at the toxicity check (mostly the fifth day); where none is given, no animal had died by that day.

This experiment relates to P388 leukemia ip, CD2F1 mice, survival T/C. Description: NCI In Vivo Anticancer Drug Screen. Data for tumor model P388 Leukemia (intraperitoneal) in CD2F1 (CDF1) mice. The note with it: T/C endpoint: median survival time, higher T/C = longer survival.
Setting [1] is: dose: 200.0 mg/kg/injection, schedule: Q01DX005 (ip), vehicle: saline with Tween-80.
Setting [2] is: dose: 200.0 mg/kg/injection, schedule: Q01DX001 (ip), vehicle: Klucel (hydroxypropylcellulose) (HPC).
[3] abbreviates: dose: 400.0 mg/kg/injection, schedule: Q01DX001 (ip), vehicle: Klucel (hydroxypropylcellulose) (HPC).
The mark [4] stands for this setting: dose: 25.0 mg/kg/injection, schedule: Q01DX009 (ip), vehicle: saline.
The mark [5] stands for this setting: dose: 50.0 mg/kg/injection, schedule: Q01DX009 (ip), vehicle: saline with Tween-80.
Setting [6] is: dose: 200.0 mg/kg/injection, schedule: Q01DX009 (ip), vehicle: saline with Tween-80.
Setting [7] is: dose: 100.0 mg/kg/injection, schedule: Q01DX009 (ip), vehicle: saline with Tween-80.

For the compound `CC[C@@H](C)[C@@H]1NC(=O)C(NC(=O)C(CC(C)C)N(C)C(=O)C2CCCN2C(=O)C(C)O)C(C)OC(=O)C(Cc2ccc(OC)cc2)N(C)C(=O)C2CCCN2C(=O)C(CC(C)C)NC(=O)C(C)C(=O)C(C(C)C)OC(=O)C[C@H]1O` (some centres undefined), the T/C is, setting by setting: (dose: 0.07 mg/kg/injection, schedule: Q01DX009 (ip), vehicle: none) 135 % of control [3 of 4 alive]; (dose: 25.0 micrograms/kg/injection, schedule: Q01DX009 (ip), vehicle: distilled water + Tween-80 + alcohol) 140 % of control; (dose: 40.0 micrograms/kg/injection, schedule: Q01DX009 (ip), vehicle: distilled water + alcohol) 136 % of control; (dose: 50.0 micrograms/kg/injection, schedule: Q01DX009 (ip), vehicle: distilled water + Tween-80 + alcohol) 142 % of control; (dose: 100.0 micrograms/kg/injection, schedule: Q01DX009 (ip), vehicle: distilled water + Tween-80 + alcohol) 145 % of control; (dose: 160.0 micrograms/kg/injection, schedule: Q01DX009 (ip), vehicle: distilled water + alcohol) 146 % of control. In addition, the survivor count was 1 of 4 (dose: 0.15 mg/kg/injection, schedule: Q01DX009 (ip), vehicle: none); 0 of 4 (dose: 0.3 mg/kg/injection, schedule: Q01DX009 (ip), vehicle: none); 6 of 6 (dose: 200.0 micrograms/kg/injection, schedule: Q01DX009 (ip), vehicle: distilled water + Tween-80 + alcohol); 0 of 6 (dose: 400.0 micrograms/kg/injection, schedule: Q01DX009 (ip), vehicle: distilled water + Tween-80 + alcohol); 0 of 6 (dose: 800.0 micrograms/kg/injection, schedule: Q01DX009 (ip), vehicle: distilled water + Tween-80 + alcohol).
In the case of `COc1cc2c(cc1OC)C(Cc1cccs1)=NCC2`, the survivor count (dose: 200.0 mg/kg/injection, schedule: Q01DX005 (ip), vehicle: Klucel (hydroxypropylcellulose) (HPC)) is listed as 2 of 5.
As for `O=C(NC1CCCCC1)C1C(=O)C(=O)N(C2CCCCC2)C1=O` (centres undefined), under setting [1], the survivor count is reported as 1 of 6.
In the case of `CCOC(=O)/N=[N+](\[O-])c1ccc(Cl)cc1`, the survivor count by setting is: under setting [2], 0 of 6; under setting [3], 1 of 6.
As for `CC[Se](CC)CC.CC[Se](CC)CC.C[CH2][Ge]([CH2]C)[O][Ge]([CH2]C)[CH2]C`, the T/C under setting [4] is 126 % of control.
Take `CC(C)=Cc1cc(-c2cc(C=C(C)C)nc(N)n2)nc(N)n1`: the survivor count (dose: 240.0 mg/kg/injection, schedule: Q01DX005 (ip), vehicle: saline) was 3 of 6.
In the case of `CCCCCCCCCCCC(=O)OCCN1CCN(CCCN2c3ccccc3Sc3ccc(C(F)(F)F)cc32)CC1`, the survivor count under setting [5] was 5 of 6 and the survivor count under setting [6] is listed as 5 of 6.
`O=c1[nH]c2nc3ccccc3n2nc1-c1ccccc1`: the survivor count runs as follows: under setting [2], 2 of 6; under setting [3], 0 of 6.
Regarding `COc1cc2cc[n+]3c4ccc([N+](=O)[O-])cc4ccc3c2cc1OC`, the T/C was 132 % of control (dose: 25.0 mg/kg/injection, schedule: Q01DX005 (ip), vehicle: saline with Tween-80); 127 % of control (dose: 50.0 mg/kg/injection, schedule: Q01DX005 (ip), vehicle: saline with Tween-80, evaluated on day 20); 132 % of control (dose: 50.0 mg/kg/injection, schedule: Q01DX005 (ip), vehicle: saline with Tween-80, evaluated on day 30); 149 % of control (dose: 100.0 mg/kg/injection, schedule: Q01DX005 (ip), vehicle: saline with Tween-80, evaluated on day 20); 141 % of control (dose: 100.0 mg/kg/injection, schedule: Q01DX005 (ip), vehicle: saline with Tween-80, evaluated on day 30). Moreover, under setting [1], the survivor count is given as 2 of 5.
For `CC(=O)NC(Cc1cccc(F)c1)C(=O)O` (centres undefined), the survivor count (dose: 12.5 mg/kg/injection, schedule: Q01DX009 (ip), vehicle: saline) is 1 of 6 and the survivor count under setting [4] is listed as 0 of 6.
Consider `CCN(CC)C(=O)C1(C)NS(=O)(=O)c2ccccc2C1=O` (centres undefined), for which the T/C under setting [6] is 125 % of control.
Regarding `C=C1C(=O)OC(C)(C)C1c1ccccc1` (centres undefined), the survivor count (dose: 200.0 mg/kg/injection, schedule: Q01DX009 (ip), vehicle: Klucel (hydroxypropylcellulose) (HPC)) was 6 of 6.
Consider `COC(=O)/C=C1\C=CC=CC12C(C(=O)OC)c1ccccc1C(C(=O)OC)C2C(=O)OC` (centres undefined), for which the survivor count under setting [5] is recorded as 6 of 6, the survivor count under setting [7] was 6 of 6 and the survivor count under setting [6] was 6 of 6.
As to `COc1cc(CO)c(I)c(OC)c1OC`, under setting [3], the survivor count is listed as 3 of 6.
In the case of `CN(C)C1c2cc(Cl)ccc2-c2c(Cl)cc(Cl)cc21` (centres undefined), the survivor count (dose: 100.0 mg/kg/injection, schedule: Q01DX005 (ip), vehicle: Klucel (hydroxypropylcellulose) (HPC)) is listed as 6 of 6.
`C=CCOc1ccccc1N/N=C(\Cl)C(=O)OCC`: the survivor count is 5 of 6 under setting [5]; 0 of 6 and 3 of 6 under setting [7]; 0 of 6 under setting [6].
